Measurements reported in US10519147B2 (Merck Sharp & Dohme Corp., priority 2015, dated 2019).
Some entries share one result that the patent states for a list of compounds.

The chains behind the UniProt entries cited, without tags or fusion partners.
UniProt Q14524, whole entry: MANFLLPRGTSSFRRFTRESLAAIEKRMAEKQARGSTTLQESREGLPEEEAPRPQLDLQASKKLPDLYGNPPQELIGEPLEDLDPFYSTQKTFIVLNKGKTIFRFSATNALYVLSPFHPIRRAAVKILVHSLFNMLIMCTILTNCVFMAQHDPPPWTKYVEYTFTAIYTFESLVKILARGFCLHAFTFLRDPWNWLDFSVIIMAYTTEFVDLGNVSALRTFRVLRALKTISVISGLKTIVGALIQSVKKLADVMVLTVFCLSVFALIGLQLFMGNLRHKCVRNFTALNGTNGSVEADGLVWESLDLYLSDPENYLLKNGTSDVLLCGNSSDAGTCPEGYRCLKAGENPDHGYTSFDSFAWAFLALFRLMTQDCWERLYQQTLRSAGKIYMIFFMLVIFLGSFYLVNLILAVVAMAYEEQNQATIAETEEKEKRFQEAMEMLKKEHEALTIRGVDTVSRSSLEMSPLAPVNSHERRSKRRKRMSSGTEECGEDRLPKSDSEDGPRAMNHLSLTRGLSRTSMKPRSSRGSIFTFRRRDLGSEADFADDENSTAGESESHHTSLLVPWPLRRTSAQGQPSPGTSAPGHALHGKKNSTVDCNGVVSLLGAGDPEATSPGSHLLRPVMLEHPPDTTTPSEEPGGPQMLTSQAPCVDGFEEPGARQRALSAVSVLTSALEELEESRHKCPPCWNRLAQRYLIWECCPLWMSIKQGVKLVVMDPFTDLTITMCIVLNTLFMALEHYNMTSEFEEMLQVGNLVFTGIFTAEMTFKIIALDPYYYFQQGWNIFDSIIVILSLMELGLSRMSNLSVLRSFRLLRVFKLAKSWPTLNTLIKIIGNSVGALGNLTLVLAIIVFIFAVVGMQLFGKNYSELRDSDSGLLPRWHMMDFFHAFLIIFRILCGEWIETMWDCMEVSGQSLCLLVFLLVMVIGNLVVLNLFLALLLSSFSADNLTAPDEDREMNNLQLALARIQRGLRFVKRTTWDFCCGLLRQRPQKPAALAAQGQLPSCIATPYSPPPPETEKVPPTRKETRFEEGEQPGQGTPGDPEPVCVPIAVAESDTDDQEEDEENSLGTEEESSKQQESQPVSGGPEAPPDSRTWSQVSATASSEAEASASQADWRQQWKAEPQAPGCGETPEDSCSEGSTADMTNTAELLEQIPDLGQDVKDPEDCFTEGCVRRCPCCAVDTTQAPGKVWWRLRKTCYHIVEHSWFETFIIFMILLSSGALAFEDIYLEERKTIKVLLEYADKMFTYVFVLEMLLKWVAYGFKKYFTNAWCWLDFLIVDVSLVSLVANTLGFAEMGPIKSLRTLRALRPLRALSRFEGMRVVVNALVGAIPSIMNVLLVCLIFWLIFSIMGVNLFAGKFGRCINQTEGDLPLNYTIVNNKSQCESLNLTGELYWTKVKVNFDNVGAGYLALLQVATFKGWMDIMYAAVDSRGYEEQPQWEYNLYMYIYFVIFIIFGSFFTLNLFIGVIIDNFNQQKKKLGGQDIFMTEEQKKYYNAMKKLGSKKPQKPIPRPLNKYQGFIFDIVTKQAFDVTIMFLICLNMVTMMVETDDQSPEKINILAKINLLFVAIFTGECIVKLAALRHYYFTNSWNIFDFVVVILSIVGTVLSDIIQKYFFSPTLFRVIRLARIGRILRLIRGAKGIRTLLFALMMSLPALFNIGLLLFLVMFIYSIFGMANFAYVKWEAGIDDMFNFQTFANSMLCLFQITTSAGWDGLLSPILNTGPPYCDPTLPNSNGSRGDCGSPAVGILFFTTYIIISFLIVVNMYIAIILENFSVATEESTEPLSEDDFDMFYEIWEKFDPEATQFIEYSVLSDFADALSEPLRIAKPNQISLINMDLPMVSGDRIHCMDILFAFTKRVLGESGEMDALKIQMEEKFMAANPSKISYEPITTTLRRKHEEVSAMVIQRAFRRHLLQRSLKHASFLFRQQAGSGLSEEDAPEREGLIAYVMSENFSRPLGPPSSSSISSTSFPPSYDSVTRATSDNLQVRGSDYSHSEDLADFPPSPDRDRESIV

Biological target: T1, human Nav1.5 (Homo sapiens, UniProt Q14524)
T1 construct: expressed in transfected cells; host or cells: HEK 293
Experiment: IonWorks Quattro automated patch-clamp, Nav1.5 (selectivity against Nav1.7)
Format: cell-based
Settings: IonWorks measurement, HEK 293 cells, inactivated state block
Method: Compounds were tested on human Nav1.7 and Nav1.5 channels stably expressed in HEK 293 cells. […] Cells were sealed on a planar substrate using the Population Patch […] (PPC) technology. Electrical access was obtained using both nystatin and amphotericin. A double-pulse protocol was used for the determination of IC50 values for inactivated state block. Nav1.7 and Nav1.5 expressing cells were voltage clamped at −100 mV and −110 mV, respectively. A depolarizing prepulse to −10 mV (Nav1.7) or −30 mV (Nav1.5) for 1000 ms followed by a 10 ms repolarization to −100 mV (Nav1.7) or −110 mV (Nav1.5) was given to generate fractional channel inactivation of 50%, followed by a 10 ms test pulse to −10 mV (Nav1.7) or −30 mV (Nav1.5) to measure peak current in control conditions and after compound addition. The following recording solutions were used (mM). External: 150 NaCl, 2 CaCl2, 5 KCl, 1 Mg Cl2, 10 HEPES, 12 Dextrose; internal: 120 CsF, 30 CsCl, 10 EGTA, 5 HEPES, 5 NaF, 2 MgCl2.
For all electrophysiology experiments, offline analysis was used to determine percent inhibition as a function of drug concentration. IC50 values were determined by fitting to the Hill equation.

| SMILES | ratio of Nav 1.7 potency:Nav 1.5 potency |
| --- | --- |
| CC(CCCNc1cc(F)c(S(=O)(=O)Nc2nccs2)cc1Cl)NC[C@@H]1CCCN1 (mixture of isomers) | > 3000 |
| O=S(=O)(Nc1nccs1)c1cc(Cl)c(NCCCCNC[C@H]2CCCCN2)cc1F [Ex 1-05, 5-chloro-2-fluoro-4-[(4-{[(2R)-piperidin-2-ylmethyl]amino}butyl)amino]-N-1,3-thiazol-2-ylbenzenesulfonamide] | > 3300 |
| O=S(=O)(Nc1nccs1)c1cc(Cl)c(NCCCCNC[C@@H]2CCCN2)cc1F [Ex 1-06, 5-chloro-2-fluoro-4-[(4-{[(2S)-pyrrolidin-2-yl-methyl]amino}butyl)-amino]-N-1,3-thiazol-2-yl-benzenesulfonamide] | > 2200 |
| CC(C)(CN)NCCCCNc1cc(F)c(S(=O)(=O)Nc2nccs2)cc1Cl [Ex 1-10, 4-({4-[(2-amino-1,1-dimethylethyl)amino]-butyl}amino)-5-chloro-2-fluoro-N-1,3-thiazol-2-yl-benzenesulfonamide] | > 1180 |
| CN(CCN)CCCCNc1cc(F)c(S(=O)(=O)Nc2nccs2)cc1Cl [Ex 1-15, 4-({4-[(2-aminoethyl) (methyl)amino]butyl}amino)-5-chloro-2-fluoro-N-1,3-thiazol-2-ylbenzenesulfonamide] | > 1140 |
| N[C@H]1CCCC[C@H]1NCCCCNc1cc(F)c(S(=O)(=O)Nc2nccs2)cc1Cl [Ex 1-30, 4-[(4-{[(1R,2S)-2-aminocyclohexyl]amino}butyl)amino]-5-chloro-2-fluoro-N-1,3-thiazol-2-ylbenzenesulfonamide] | > 1740 |
| O=S(=O)(Nc1nccs1)c1cc(Cl)c(NCCCCNCC2CNC2)cc1F [Ex 5-03, 4-((4-((azetidin-3-ylmethyl)amino)butyl)amino)-5-chloro-2-fluoro-N-(thiazol-2-yl)benzenesulfonamide] | > 970 |
| CNCCNCCCCNc1cc(F)c(S(=O)(=O)Nc2nccs2)cc1Cl [Ex 5-04] | > 2750 |
| O=S(=O)(Nc1nccs1)c1cc(Cl)c(NCCCCNC[C@H]2CCCN2)cc1F [Ex 7-6, (R)-5-chloro-2-fluoro-4-((4-((pyrrolidin-2-ylmethyl)amino)butyl)amino)-N-(thiazol-2-yl)benzenesulfonamide] | > 970 |
| O=S(=O)(Nc1ncns1)c1cc(Cl)c(NCCCCNC[C@@H]2CCCN2)cc1F [Ex 7-8, 5-chloro-2-fluoro-4-[(4-{[(2S)-pyrrolidin-2-ylmethyl]amino}butyl)amino]-N-1,2,4-thiadiazol-5-ylbenzenesulfonamide] | > 3300 |
| O=S(=O)(Nc1ncc(Cl)s1)c1cc(Cl)c(NCCCCNC[C@@H]2CCCN2)cc1F [Ex 7-9, 5-chloro-N-(5-chloro-1,3-thiazol-2-yl)-2-fluoro-4-[(4-{[(2S)-pyrrolidin-2-ylmethyl]amino}butyl)amino]benzenesulfonamide] | > 1140 |
| O=S(=O)(Nc1nccs1)c1cc(Br)c(NCCCCNC[C@@H]2CCCN2)cc1F [Ex 7-10, 5-bromo-2-fluoro-4-[(4-{[(2S)-pyrrolidin-2-ylmethyl]amino}butyl)amino]-N-1,3-thiazol-2-ylbenzenesulfonamide] | > 2060 |
| O=S(=O)(Nc1ncc(F)s1)c1cc(Cl)c(NCCCCNC[C@@H]2CCCN2)cc1F [Ex 7-11, 5-chloro-2-fluoro-N-(5-fluoro-1,3-thiazol-2-yl)-4-[(4-{[(2S)-pyrrolidin-2-ylmethyl]amino}butyl)amino]benzenesulfonamide] | > 3300 |
| C[C@@H]1CN[C@H](CNCCCCNc2cc(F)c(S(=O)(=O)Nc3nccs3)cc2Cl)C1 [Ex 8-09, 5-chloro-2-fluoro-4-{[4-({[(2S,4S)-4-methylpyrrolidin-2-yl]-methyl}amino)butyl]amino}-N-1,3-thiazol-2-yl-benzenesulfonamide] | > 1830 |
| C[C@H]1CC[C@@H](CNCCCCNc2cc(F)c(S(=O)(=O)Nc3nccs3)cc2Cl)N1 [Ex 8-10, 5-chloro-2-fluoro-4-{[4-({[(2S,5S)-5-methylpyrrolidin-2-yl]-methyl}amino)butyl]amino}-N-1,3-thiazol-2-yl-benzenesulfonamide] | > 2060 |
| O=S(=O)(Nc1nccs1)c1cc(Cl)c(NCCCCNC[C@@H]2C[C@H](C(F)(F)F)CN2)cc1F [Ex 8-12, 5-chloro-2-fluoro-N-1,3-thiazol-2-yl-4-{[4-({[(2S,4S)-4-(trifluoromethyl)-pyrrolidin-2-yl]methyl}amino)butyl]amino}benzenesulfonamide] | > 1570 |
| O=S(=O)(Nc1ncns1)c1cc(Cl)c(NCCCCNC[C@H]2CCN2)cc1F [Ex 13-02, 4-[(4-{[(2R)-azetidin-2-yl-methyl]-amino}butyl)amino]-5-chloro-2-fluoro-N-1,2,4-thiadiazol-5-yl-benzene-sulfonamide] | > 2360 |
| O=S(=O)(Nc1ncns1)c1cc(Cl)c(NCCCCNC[C@@H]2CCN2)cc1F [Ex 14-04, 4-[(4-{[(2S)-azetidin-2-yl-methyl]-amino}butyl)amino]-5-chloro-2-fluoro-N-1,2,4-thiadiazol-5-ylbenzene-sulfonamide] | > 2360 |
| C[C@H](N)CNCCCCNc1cc(F)c(S(=O)(=O)Nc2ncns2)cc1Cl [Ex 15-05, 4-[(4-{[(2S)-2-aminopropyl]amino}butyl)amino]-5-chloro-2-fluoro-N-1,2,4-thiadiazol-5-ylbenzenesulfonamide] | > 2750 |
| O=S(=O)(Nc1ncns1)c1cc(Cl)c(NCCCCNC2CNC2)cc1F [Ex 16-01, 4-{[4-(azetidin-3-ylamino)-butyl]-amino}-5-chloro-2-fluoro-N-1,2,4-thiadiazol-5-ylbenzenesulfonamide] | > 589 |
| O=S(=O)(Nc1ncc(F)s1)c1cc(Br)c(NCCCCNC[C@H]2CCCCN2)cc1F [Ex 16-04, 5-bromo-2-fluoro-N-(5-fluoro-1,3-thiazol-2-yl)-4-[(4-{[(2R)-piperidin-2-ylmethyl]amino}-butyl]amino]benzene-sulfonamide] | > 3000 |
| C[C@H](CN)NCCCCNc1cc(F)c(S(=O)(=O)Nc2nccs2)cc1Cl [Ex 16-08, 4-[(4-{[(1R)-2-amino-1-methylethyl]-amino}butyl)-amino]-5-chloro-2-fluoro-N-1,3-thiazol-2-ylbenzenesulfonamide] | > 2200 |
| O=S(=O)(Nc1ncns1)c1cc(Cl)c(NCCCCNC[C@H]2CCCCN2)cc1F [Ex 16-15, 5-chloro-2-fluoro-4-[(4-{[(2R)-piperidin-2-yl-methyl]amino}butyl)-amino]-N-1,2,4-thiadiazol-5-yl-benzenesulfonamide] | > 6470 |
| O=S(=O)(Nc1ncc(F)s1)c1cc(Cl)c(NCCCCNCC[C@H]2CCCN2)cc1F [Ex 16-18, 5-chloro-2-fluoro-N-(5-fluoro-1,3-thiazol-2-yl)-4-{[4-({2-[(2R)-pyrrolidin-2yl]-ethyl}amino)butyl]-amino} benzenesulfonamide] | > 1833 |
| O=S(=O)(Nc1ncns1)c1cc(Cl)c(NCCCCN[C@@H]2CCNC2)cc1F [Ex 16-19, 5-chloro-2-fluoro-4-({4-[(3R)-pyrrolidin-3-ylamino]-butyl}amino)-N-1,2,4-thiadiazol-5-ylbenzene-sulfonamide] | > 3000 |
